Results published in PMC12808826.
These are yes or no findings as the source states them, for the method shown. Binding seen in cells or lysates may run through a third protein. Some results given as binding are weak or reduced against the parent protein; the word gives no strength. For some assays here: Tags and fused reporters may be left off the sequences shown.

Amino acid sequences for entries named in this document (tags omitted).
UniProt P46938: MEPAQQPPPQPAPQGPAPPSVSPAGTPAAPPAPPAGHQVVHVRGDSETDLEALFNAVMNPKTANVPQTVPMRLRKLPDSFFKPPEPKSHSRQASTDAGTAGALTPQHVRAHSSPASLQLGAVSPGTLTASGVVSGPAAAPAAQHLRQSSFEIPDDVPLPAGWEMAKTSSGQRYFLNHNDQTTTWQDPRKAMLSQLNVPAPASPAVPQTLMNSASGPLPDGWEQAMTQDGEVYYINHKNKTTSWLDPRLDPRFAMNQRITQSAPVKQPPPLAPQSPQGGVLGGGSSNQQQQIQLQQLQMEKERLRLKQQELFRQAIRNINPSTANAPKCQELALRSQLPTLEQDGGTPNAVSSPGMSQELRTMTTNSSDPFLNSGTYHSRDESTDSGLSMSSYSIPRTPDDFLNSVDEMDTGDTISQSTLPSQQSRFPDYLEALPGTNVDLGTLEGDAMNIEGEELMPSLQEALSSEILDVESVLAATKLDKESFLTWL
UniProt P30051: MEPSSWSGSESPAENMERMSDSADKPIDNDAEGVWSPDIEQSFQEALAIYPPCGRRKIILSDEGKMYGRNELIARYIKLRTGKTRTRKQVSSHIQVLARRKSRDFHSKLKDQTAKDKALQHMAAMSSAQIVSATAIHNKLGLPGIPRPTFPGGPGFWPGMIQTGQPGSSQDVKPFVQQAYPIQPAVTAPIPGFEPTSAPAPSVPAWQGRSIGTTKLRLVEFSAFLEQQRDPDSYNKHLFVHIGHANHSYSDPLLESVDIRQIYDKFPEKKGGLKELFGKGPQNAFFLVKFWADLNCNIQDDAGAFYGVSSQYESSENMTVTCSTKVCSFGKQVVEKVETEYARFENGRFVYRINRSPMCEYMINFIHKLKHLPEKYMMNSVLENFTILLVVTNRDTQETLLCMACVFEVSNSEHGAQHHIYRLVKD

B1: Flag-GBP2 (guanylate binding protein 2) (protein, UniProt Q9Z0E6 1-589)
chain: MASEIHMSEPMCLIENTEAQLVINQEALRILSAITQPVVVVAIVGLYRTGKSYLMNKLAGKRTGFSLGSTVQSHTKGIWMWCVPHPKKAGQTLVLLDTEGLEDVEKGDNQNDCWIFALAVLLSSTFIYNSIGTINQQAMDQLHYVTELTDLIKSKSSPDQSGVDDSANFVGFFPTFVWTLRDFSLELEVNGKPVTSDEYLEHSLTLKKGADKKTKSFNEPRLCIRKFFPKRKCFIFDRPAQRKQLSKLETLREEELCGEFVEQVAEFTSYILSYSSVKTLCGGIIVNGPRLKSLVQTYVGAISNGSLPCMESAVLTLAQIENSAAVQKAITHYEEQMNQKIQMPTETLQELLDLHRPIESEAIEVFLKNSFKDVDQKFQTELGNLLVAKRDAFIKKNMDVSSARCSDLLEDIFGPLEEEVKLGTFSKPGGYYLFLQMRQELEKKYNQAPGKGLQAEAMLKNYFDSKADVVETLLQTDQSLTEAAKEVEEERTKAEAAEAANRELEKKQKEFELMMQQKEKSYQEHVKKLTEKMKDEQKQLLAEQENIIAAKLREQEKFLKEGFENESKKLIREIDTLKQNKSSGKCTIL

Assays:
[1] = target: YAP1 (Yes-associated protein 1), endogenous in VSMCs (mouse (endogenous in primary mouse aortic VSMCs)) (UniProt P46938); test: co-IP; VSMCs transfected with siRNA of Zfp36 and Gbp2; endogenous proteins; which protein was precipitated is not told
[2] = target: HA-TEAD1 (TEA domain transcription factor 1) (UniProt P30051); test: co-IP; HEK-293T cells transfected with Flag-GBP2 plasmid and HA-TEAD1 plasmid; which protein was precipitated is not told

| Molecule | binding [1] | binding [2] |
| --- | --- | --- |
| TEAD1 (TEA domain transcription factor 1), endogenous in VSMCs (from UniProt P30051 1-426) | binds | – |
| B1 | – | binds |
